Among the data in paper PMC6830126 are binding values, retold here.

Amino acid sequences for entries named in this document (tags omitted). Residues count along the entry.
UniProt Q5FVQ8, residues 85-973: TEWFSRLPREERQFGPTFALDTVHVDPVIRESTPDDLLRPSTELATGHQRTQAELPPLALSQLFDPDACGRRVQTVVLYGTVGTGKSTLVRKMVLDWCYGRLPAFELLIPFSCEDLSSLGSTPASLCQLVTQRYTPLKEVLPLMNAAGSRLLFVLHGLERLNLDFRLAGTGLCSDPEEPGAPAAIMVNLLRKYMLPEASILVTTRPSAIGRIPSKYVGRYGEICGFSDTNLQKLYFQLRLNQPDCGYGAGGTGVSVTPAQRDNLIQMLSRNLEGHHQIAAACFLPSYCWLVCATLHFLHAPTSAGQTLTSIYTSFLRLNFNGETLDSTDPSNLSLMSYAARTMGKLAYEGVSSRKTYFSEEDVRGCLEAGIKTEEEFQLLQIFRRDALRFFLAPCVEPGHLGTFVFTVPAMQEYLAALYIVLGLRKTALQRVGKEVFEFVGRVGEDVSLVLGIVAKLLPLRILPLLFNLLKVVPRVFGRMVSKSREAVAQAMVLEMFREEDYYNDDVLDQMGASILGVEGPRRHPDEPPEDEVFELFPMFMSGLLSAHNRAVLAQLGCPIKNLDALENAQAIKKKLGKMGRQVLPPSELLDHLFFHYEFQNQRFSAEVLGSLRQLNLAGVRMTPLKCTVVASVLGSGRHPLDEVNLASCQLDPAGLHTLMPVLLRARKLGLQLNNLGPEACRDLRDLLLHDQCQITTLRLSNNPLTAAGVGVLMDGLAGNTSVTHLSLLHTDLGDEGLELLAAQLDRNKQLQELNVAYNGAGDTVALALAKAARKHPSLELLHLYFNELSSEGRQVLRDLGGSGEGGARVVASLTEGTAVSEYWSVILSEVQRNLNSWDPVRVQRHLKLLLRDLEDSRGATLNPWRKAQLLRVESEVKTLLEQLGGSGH
UniProt Q6TMG5: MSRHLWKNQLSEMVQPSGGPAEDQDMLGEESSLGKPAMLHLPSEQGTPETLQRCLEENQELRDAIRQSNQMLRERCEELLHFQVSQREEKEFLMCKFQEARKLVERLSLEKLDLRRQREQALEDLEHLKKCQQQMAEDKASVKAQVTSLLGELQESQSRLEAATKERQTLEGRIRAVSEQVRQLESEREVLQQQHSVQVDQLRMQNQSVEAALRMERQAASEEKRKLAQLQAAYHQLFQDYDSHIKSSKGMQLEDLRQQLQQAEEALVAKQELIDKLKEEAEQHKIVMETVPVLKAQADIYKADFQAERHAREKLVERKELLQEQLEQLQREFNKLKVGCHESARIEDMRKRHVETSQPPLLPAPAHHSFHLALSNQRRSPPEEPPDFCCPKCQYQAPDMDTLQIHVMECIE

No constants are given. Whether binding was seen depends on the method and setting. Binding seen in cells or lysates may run through a third protein. Some binding calls cover weakened binding; strength is not graded here.

Assay [1] deals with T1, MAVS, rat, endogenous (rat (endogenous in PMVECs)) (UniProt Q66HG9).
T1 sequence: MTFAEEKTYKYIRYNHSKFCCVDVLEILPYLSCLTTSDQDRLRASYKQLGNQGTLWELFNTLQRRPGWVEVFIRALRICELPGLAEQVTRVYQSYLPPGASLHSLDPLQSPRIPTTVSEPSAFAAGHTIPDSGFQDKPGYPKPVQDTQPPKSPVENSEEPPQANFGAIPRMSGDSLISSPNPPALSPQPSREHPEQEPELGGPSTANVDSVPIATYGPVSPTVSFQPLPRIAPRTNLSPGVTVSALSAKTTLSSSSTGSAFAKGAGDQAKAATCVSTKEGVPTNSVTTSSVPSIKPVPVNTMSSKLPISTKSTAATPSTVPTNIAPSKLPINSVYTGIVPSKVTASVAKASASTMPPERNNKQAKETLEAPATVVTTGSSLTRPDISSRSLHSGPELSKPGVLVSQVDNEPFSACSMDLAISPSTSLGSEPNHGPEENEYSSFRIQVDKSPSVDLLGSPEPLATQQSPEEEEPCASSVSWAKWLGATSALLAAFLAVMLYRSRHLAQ
The assay is described as follows: co-IP; endogenous proteins; rat PMVECs treated with sodium azide for 3 h; lysate in IP lysis buffer (Pierce) with 2 ug primary antibody at 4°C overnight, Protein G-Sepharose or Protein A/G agarose 60 min at 4°C, four washes; western blot; isotype IgG as control.

For assay [2], the target named is Nucleotide-binding domain and leucine-rich repeat-containing protein X1 (NLRX1), rat, endogenous (rat (endogenous in PMVECs)) (UniProt Q5FVQ8). The assay is described as above.

Take “NEMO, rat, endogenous (from UniProt Q6TMG5 1-412)”: the binding entry in assay [1] was “binds”.

B1: MAVS, rat, endogenous (protein, UniProt Q66HG9 1-507)
chain: MTFAEEKTYKYIRYNHSKFCCVDVLEILPYLSCLTTSDQDRLRASYKQLGNQGTLWELFNTLQRRPGWVEVFIRALRICELPGLAEQVTRVYQSYLPPGASLHSLDPLQSPRIPTTVSEPSAFAAGHTIPDSGFQDKPGYPKPVQDTQPPKSPVENSEEPPQANFGAIPRMSGDSLISSPNPPALSPQPSREHPEQEPELGGPSTANVDSVPIATYGPVSPTVSFQPLPRIAPRTNLSPGVTVSALSAKTTLSSSSTGSAFAKGAGDQAKAATCVSTKEGVPTNSVTTSSVPSIKPVPVNTMSSKLPISTKSTAATPSTVPTNIAPSKLPINSVYTGIVPSKVTASVAKASASTMPPERNNKQAKETLEAPATVVTTGSSLTRPDISSRSLHSGPELSKPGVLVSQVDNEPFSACSMDLAISPSTSLGSEPNHGPEENEYSSFRIQVDKSPSVDLLGSPEPLATQQSPEEEEPCASSVSWAKWLGATSALLAAFLAVMLYRSRHLAQ
As to B1, the binding result in assay [2] is on record as “binds”.

B2: TBK1, rat, endogenous (protein, UniProt D4A7D3 1-729)
chain: MQSTSNHLWLLSDILGQGATANVFRGRHKKTGDLYAVKVFNNISFLRPVDVQMREFEVLKKLNHKNIVKLFAIEEETTTRHKVLIMEFCPCGSLYTVLEEPSNAYGLPESEFLIVLRDVVGGMNHLRENGIVHRDIKPGNIMRVIGEDGQSVYKLTDFGAARELEDDEQFVSLYGTEEYLHPDMYERAVLRKDHQKKYGATVDLWSVGVTFYHAATGSLPFRPFEGPRRNKEVMYKIITGKPSGAISGVQKAENGPIDWSGDMPLSCSLSQGLQALLTPVLANILEADQEKCWGFDQFFAETSDVLHRMVIHVFSLQHMTALKIYIHSYNTAAVFHELVYKQTKIISSNQELIYEGRRLVLELGRLAQHFPKTTEENPIFVTSREQLNSIGLRYEKISLPKIHPRYDLDGDASMAKAVTGVVCYACRTAGTLLLYQELMRKGVRWLIELVKDDYNETVHKKTEVVITLDFCIRNIEKTVKVYEKLMKVSLDAAELGEISDIHTKLLRLSSSQGTIESSLQDINSRLSPGGSLADTWAHQEGTHPRDRNVEKLQVLLNCITEIYYQFKKDKAERRLAYNEEQIHKFDKQKLYYHATKAMTHFTDECVRKYEAFKDTSEEWMRKMLHLRKQLLSLTNQCFDIEEEVSKYQDYTNELQETLPQKMLAASSGIKHTVAPIYPSSNTLVEMTLGMKKLKEEMEGVVKELAENNHILERFGSLTMDGGLRNVDCL
On to B2, for which the binding result in assay [1] and in assay [2] was “binds” each time.

B3: phosphorylated TBK1, rat, endogenous (protein, UniProt D4A7D3 1-729)
chain: MQSTSNHLWLLSDILGQGATANVFRGRHKKTGDLYAVKVFNNISFLRPVDVQMREFEVLKKLNHKNIVKLFAIEEETTTRHKVLIMEFCPCGSLYTVLEEPSNAYGLPESEFLIVLRDVVGGMNHLRENGIVHRDIKPGNIMRVIGEDGQSVYKLTDFGAARELEDDEQFVSLYGTEEYLHPDMYERAVLRKDHQKKYGATVDLWSVGVTFYHAATGSLPFRPFEGPRRNKEVMYKIITGKPSGAISGVQKAENGPIDWSGDMPLSCSLSQGLQALLTPVLANILEADQEKCWGFDQFFAETSDVLHRMVIHVFSLQHMTALKIYIHSYNTAAVFHELVYKQTKIISSNQELIYEGRRLVLELGRLAQHFPKTTEENPIFVTSREQLNSIGLRYEKISLPKIHPRYDLDGDASMAKAVTGVVCYACRTAGTLLLYQELMRKGVRWLIELVKDDYNETVHKKTEVVITLDFCIRNIEKTVKVYEKLMKVSLDAAELGEISDIHTKLLRLSSSQGTIESSLQDINSRLSPGGSLADTWAHQEGTHPRDRNVEKLQVLLNCITEIYYQFKKDKAERRLAYNEEQIHKFDKQKLYYHATKAMTHFTDECVRKYEAFKDTSEEWMRKMLHLRKQLLSLTNQCFDIEEEVSKYQDYTNELQETLPQKMLAASSGIKHTVAPIYPSSNTLVEMTLGMKKLKEEMEGVVKELAENNHILERFGSLTMDGGLRNVDCL
modifications: phosphorylated (p-TBK1; site not given)
As to B3, the binding entry in assay [2] is given as “binds”.
